According to patent US20190046490A1, “METHODS OF TREATING LACTOSE INTOLERANCE” (Nogra Pharma Limited, priority 2016, published 2019):

Tested on: LCT gene
Experiment: Transcriptome microarray analysis of LCT mRNA expression in Caco-2 cells treated with PPARγ modulators
Assay type: cell-based, human
Conditions: rank of LCT among regulated genes
Experimental: Caco-2 (colonic adenocarcinoma) cells were grown in Dulbecco's Modified Eagle's Medium (DMEM, Invitrogen, Life Technologies, Cergy-Pontoise, France) supplemented with 20% foetal calf serum (FCS, Dutscher, Brumath, France), 1% penicillin-streptomycin (5 ml/l) (Invitrogen, Life technologies) and 1% non-essential amino acids (5 ml/l) (Invitrogen, Life technologies). All cell lines were cultured as confluent monolayers at 37° C. in a controlled, 5% CO2 atmosphere.
For cell stimulations, 1×10^6 cells per well were seeded in 6-well plates. Cells were serum deprived for 16 hours prior to stimulation in order to synchronize the cells. Cells were treated with GED (Nogra Pharma Ltd, Ireland), pioglitazone (1 μM, Sigma-Aldrich) or CLA (various concentrations, Sigma-Aldrich). When necessary, the DMSO vehicle (Sigma-Aldrich) was used as control. After 24 hours of stimulation, cells were washed three times with sterile PBS before RNA extraction. Cell stimulations were performed in 4 replicates for microarray analysis and in 3, 4 or 6 replicates for other stimulations.
Cells were lysed with lysis buffer (RA1, Macherey-Nagel) containing 1% β-mercaptoethanol. Total RNA was extracted with a Nucleospin RNA kit (Macherey-Nagel, Hoerdt, France). […] The purity of the RNA was evaluated by UV spectroscopy on a Nanodrop system (Nyxor Biotech, Paris, France) from 220 to 350 nm. […]
Dual-colour gene expression microarrays were used to compare the cRNA from the samples. […] The RNAs from the samples were first reverse-transcribed into cDNA (Affinity-Script RT, Agilent), which were then used as the substrate for the synthesis and amplification of cRNA by T7 RNA polymerase in the presence of cyanine 3-CTP for the CTL sample (green fluorescence) and cyanine 5-CTP for the PPAR-γ y modulator sample (red fluorescence). […] Fluorescence was visualized after laser excitation and the relative intensities of the two fluorophores were expressed as a ratio, in order to yield the over- or under-expression status of each gene (using GeneSpring software (Agilent)). […]

Compound	Rank (30 mM)	Rank (1 mM)
Nc1ccc(O)c(C(=O)O)c1 [5ASA, 5-aminosalicylic acid]	16/1574	–
COC(Cc1ccc(N)cc1)C(=O)O (stereo not drawn) [GED, 3-(4′-aminophenyl)2-methoxypropionic acid]	1/355	1/46
